The record followed here is ChEMBL document CHEMBL1136679, “Phenylacetic acid derivatives as hPPAR agonists” (Bioorg Med Chem Lett, 2003).

Data set [1] can be described thus: in vivo. Particulars: male, Sprague-Dawley, rat, iv.
Data set [2] in a line: in vivo. Particulars: male, Sprague-Dawley, rat, po, 10 mg/kg.
Data set [3] can be described thus: in vivo. To be noted: male, Sprague-Dawley, rat, iv. This is another data set of the same source.

In data set [1], `CN(CCOc1ccc(CC2SC(=O)NC2=O)cc1)c1ccccn1` (stereo not drawn) [ROSIGLITAZONE] gave a half-life of 3.8 h. Moreover, the bioavailability in data set [2] was found to be 64%. The compound also registered a clearance in data set [3] of 2.6 mL/min/kg.

As a reminder, the half-life is the time needed for the level to fall by half in the phase considered. A word on the bioavailability: it is the share of a dose that reaches the circulation, judged against a reference dose that is usually intravenous. For orientation: clearance means a measure of how efficiently the substance is removed, as volume per time. A low value points to inefficient removal.
